Data from ChEMBL document CHEMBL4368923 (J Med Chem, 2019).
In brackets after ≈: the same amount, converted by molar mass.

Amino acid sequences for entries named in this document (tags omitted).
UniProt P33261, whole entry: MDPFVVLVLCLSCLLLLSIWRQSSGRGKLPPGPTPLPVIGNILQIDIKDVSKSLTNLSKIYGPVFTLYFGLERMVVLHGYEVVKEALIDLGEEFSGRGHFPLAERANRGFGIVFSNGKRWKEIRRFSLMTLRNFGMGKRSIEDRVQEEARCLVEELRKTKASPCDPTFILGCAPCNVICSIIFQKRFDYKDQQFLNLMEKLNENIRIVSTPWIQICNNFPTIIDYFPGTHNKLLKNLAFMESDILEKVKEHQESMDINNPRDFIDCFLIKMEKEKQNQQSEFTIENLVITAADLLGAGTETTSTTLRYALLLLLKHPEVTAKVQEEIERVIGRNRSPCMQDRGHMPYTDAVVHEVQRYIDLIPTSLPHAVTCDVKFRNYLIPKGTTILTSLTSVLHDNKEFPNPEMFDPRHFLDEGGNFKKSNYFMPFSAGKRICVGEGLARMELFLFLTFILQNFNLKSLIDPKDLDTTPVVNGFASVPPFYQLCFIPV
UniProt P10635, whole entry: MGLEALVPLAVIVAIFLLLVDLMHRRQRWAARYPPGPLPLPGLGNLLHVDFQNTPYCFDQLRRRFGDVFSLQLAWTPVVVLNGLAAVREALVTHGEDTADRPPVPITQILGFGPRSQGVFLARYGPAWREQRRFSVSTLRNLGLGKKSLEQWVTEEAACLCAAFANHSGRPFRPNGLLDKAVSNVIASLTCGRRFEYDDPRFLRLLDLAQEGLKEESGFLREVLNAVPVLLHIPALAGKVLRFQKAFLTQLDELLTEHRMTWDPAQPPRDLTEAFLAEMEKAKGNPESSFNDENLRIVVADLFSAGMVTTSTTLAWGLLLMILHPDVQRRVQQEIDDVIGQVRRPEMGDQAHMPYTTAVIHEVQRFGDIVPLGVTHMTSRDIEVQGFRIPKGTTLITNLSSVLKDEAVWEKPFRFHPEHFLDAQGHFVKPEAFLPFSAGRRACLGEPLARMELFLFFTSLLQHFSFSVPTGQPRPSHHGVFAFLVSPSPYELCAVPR

Key:
[1] = Solubility of the compound in deionized water at pH 7; details: buffer
[2] = target: Cytochrome P450 2C19 (Homo sapiens, UniProt P33261)
[3] = target: Cytochrome P450 2D6 (Homo sapiens, UniProt P10635)

Cc1cc(/C=C/C#N)cc(C)c1Oc1ccnc(Nc2ccc(CN3CCN(S(C)(=O)=O)CC3)cc2)n1
solubility [1]: 30.9 µg/mL (≈ 59.6 µM)
IC50 [2]: 27 µM
IC50 [3]: > 50 µM
